Data as given in the supplement of paper PMC4604168 (melanoma cell lines).
Some of the results follow. Many values rest on one well or one pass, so single values are uncertain.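 Imaging used 1,536-well plates; nuclei positive for cleaved PARP by antibody were divided by total DNA-stained nuclei to yield the apoptosis fraction. Doses for screening kept most cells viable, and cell lines differ markedly in resting and induced cleaved-PARP levels.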

Assays:
Assay in all cases: cleaved PARP positive nuclei fraction relative to DMSO control; melanoma cells; higher = more apoptosis
Conditions in all cases: library dose: low library concentration; 72 h
WM115 = system: WM115
WM1716 = system: WM1716
WM1745 = system: WM1745
WM3526 = system: WM3526
WM3619 = system: WM3619
WM451Lu = system: WM451Lu

Row | SMILES | cleaved PARP positive nuclei fraction (WM115) | cleaved PARP positive nuclei fraction (WM1716) | cleaved PARP positive nuclei fraction (WM1745) | cleaved PARP positive nuclei fraction (WM3526) | cleaved PARP positive nuclei fraction (WM3619) | cleaved PARP positive nuclei fraction (WM451Lu)
1 | Nc1nc(F)nc2c1ncn2[C@@H]1O[C@H](CO)[C@@H](O)[C@@H]1O [fludarabine] + O=C(Oc1ccc([N+](=O)[O-])cc1)N1CCC(C(O)(c2ccc3c(c2)OCO3)c2ccc3c(c2)OCO3)CC1 [JZL184] (first compound 0.2 µM, partner dose 1 µM) | 69.7% | 98.7% | 174% | 1550% | 98.8% | 338%
2 | CCCCCCCCCCCCCCCCCCOP(=O)([O-])OC1CC[N+](C)(C)CC1 [Perifosine] + C[C@]12O[C@H](C[C@]1(O)CO)n1c3ccccc3c3c4c(c5c6ccccc6n2c5c31)CNC4=O [Lestaurtinib] (first compound 0.4 µM, partner dose 0.004 µM) | 99.3% | 74.9% | 102% | 98% | 95.2% | 15.9%
3 | C[C@]12O[C@H](C[C@]1(O)CO)n1c3ccccc3c3c4c(c5c6ccccc6n2c5c31)CNC4=O [Lestaurtinib] + COc1ccc(-c2ccc3c(N4CCOCC4)nc(N4C[C@@H](C)O[C@@H](C)C4)nc3n2)cc1CO [KU0063794] (first compound 0.004 µM, partner dose 0.02 µM) | 120% | 50.4% | 92.6% | 110% | 110% | 71.3%
4 | Cn1cc(C2=C(c3cn(C4CCN(Cc5ccccn5)CC4)c4ccccc34)C(=O)NC2=O)c2ccccc21 [Enzastaurin] + COc1cc2c(Oc3ccc4[nH]c(C)cc4c3F)ncnc2cc1OCCCN1CCCC1 [cediranib] (first compound 0.8 µM, partner dose 0.4 µM) | 120% | 85.2% | 113% | 108% | 93.2% | 157%
5 | Cn1nnc2c(C(N)=O)ncn2c1=O [temozolomide] + Cc1cc(SCc2sc(-c3ccc(C(F)(F)F)c(F)c3)nc2C)ccc1OCC(=O)O [GW0742] (first compound 2 µM, partner dose 2 µM) | 64% | 103% | 95.5% | 134% | 76.8% | 69.5%
6 | CO[C@H]1C[C@@H]2CC[C@@H](C)[C@@](O)(O2)C(=O)C(=O)N2CCCC[C@H]2C(=O)O[C@H]([C@H](C)C[C@@H]2CC[C@@H](OCCO)[C@H](OC)C2)CC(=O)[C@H](C)/C=C(\C)[C@@H](O)[C@@H](OC)C(=O)[C@H](C)C[C@H](C)/C=C/C=C/C=C/1C [everolimus] + Cc1cc(SCc2sc(-c3ccc(C(F)(F)F)c(F)c3)nc2C)ccc1OCC(=O)O [GW0742] (first compound 0.02 µM, partner dose 2 µM) | 114% | 179% | 94.4% | 70.9% | 82.2% | 163%
7 | C[As](C)SC[C@H](NC(=O)CC[C@H](N)C(=O)O)C(=O)NCC(=O)O [Darinaparsin] + c1cc(-c2cnn3cc(-c4ccc(OCCN5CCCCC5)cc4)cnc23)ccn1 [Dorsomorphin] (first compound 0.4 µM, partner dose 0.4 µM) | 88.9% | 58.3% | 261% | 74.9% | 93.3% | 61.8%
8 | O=C(O)C(=O)Nc1sc2c(c1C(=O)O)CCNC2 + C/C(O)=C(\C#N)C(=O)Nc1cc(Br)ccc1Br [LFM-A13] (first compound 1.66667 µM, partner dose 2 µM) | 54.2% | 55.7% | 148% | 115% | 92.8% | 137%
9 | OCc1c[nH]c2ccccc12 [Indole-3-carbinol] + Cc1cc(SCc2sc(-c3ccc(C(F)(F)F)c(F)c3)nc2C)ccc1OCC(=O)O [GW0742] (first compound 0.8 µM, partner dose 2 µM) | 116% | 83.1% | 90.8% | 33% | 93.5% | 58.9%
10 | O=C(Nc1cc(C(F)(F)F)cc(C(F)(F)F)c1)c1cc(Cl)ccc1O + C[C@]12O[C@H](C[C@]1(O)CO)n1c3ccccc3c3c4c(c5c6ccccc6n2c5c31)CNC4=O [Lestaurtinib] (first compound 0.016 µM, partner dose 0.004 µM) | 85% | 5.11% | 348% | 59.2% | 88.6% | 76.1%
11 | C[As](C)SC[C@H](NC(=O)CC[C@H](N)C(=O)O)C(=O)NCC(=O)O [Darinaparsin] + Oc1nc(-c2ccc(C(F)(F)F)cc2)nc2c1CSCC2 [XAV939] (first compound 0.4 µM, partner dose 2 µM) | 164% | 59.6% | 136% | 56.1% | 72.5% | 58.8%
12 | Cn1cc(C2=C(c3cn(C4CCN(Cc5ccccn5)CC4)c4ccccc34)C(=O)NC2=O)c2ccccc21 [Enzastaurin] + Nc1nc(F)nc2c1ncn2[C@@H]1O[C@H](CO)[C@@H](O)[C@@H]1O [fludarabine] (first compound 0.8 µM, partner dose 0.2 µM) | 20.5% | 57.8% | 94.8% | 244% | 106% | 57.5%
13 | CC(C)C[C@H](NC(=O)[C@H](Cc1ccccc1)NC(=O)c1cnccn1)B(O)O [Bortezomib] + C[As](C)SC[C@H](NC(=O)CC[C@H](N)C(=O)O)C(=O)NCC(=O)O [Darinaparsin] (first compound 0.001 µM, partner dose 0.4 µM) | 35.7% | 760% | 113% | 29.9% | 235% | 220%
14 | Cc1cc(SCc2sc(-c3ccc(C(F)(F)F)c(F)c3)nc2C)ccc1OCC(=O)O + O=C1NC(=O)/C(=C/c2ccc(-c3ccc(F)cc3O)o2)S1 [AS252424] (first compound 2 µM, partner dose 1 µM) | 165% | 55.1% | 114% | 49.3% | 84.1% | 53.7%
15 | C[C@]12O[C@H](C[C@]1(O)CO)n1c3ccccc3c3c4c(c5c6ccccc6n2c5c31)CNC4=O [Lestaurtinib] + O=C(O)C(=O)Nc1sc2c(c1C(=O)O)CCNC2 [TCS401] (first compound 0.004 µM, partner dose 1.66667 µM) | 119% | 188% | 103% | 87% | 71.3% | 60.2%
16 | O=C(O)[C@@H]1[O][Sb](=[O])([O][Sb]2(=[O])[O][C@H]([C@H](O)CO)[C@H](O)[C@H](C(=O)O)[O]2)[O][C@H]([C@H](O)CO)[C@@H]1O (stereo not given in full) [stibogluconate] + C[As](C)SC[C@H](NC(=O)CC[C@H](N)C(=O)O)C(=O)NCC(=O)O [Darinaparsin] (first compound 2 µM, partner dose 0.4 µM) | 84.8% | 207% | 85.7% | 80.4% | 96.6% | 76.8%
17 | O=C(Nc1cccc(Cl)c1)Nc1ncc(CCNc2ncnc3ccsc23)s1 + O=C(Oc1ccc([N+](=O)[O-])cc1)N1CCC(C(O)(c2ccc3c(c2)OCO3)c2ccc3c(c2)OCO3)CC1 [JZL184] (first compound 0.0008 µM, partner dose 1 µM) | 360% | 101% | 110% | 78% | 91.8% | 56.2%
18 | OCc1c[nH]c2ccccc12 [Indole-3-carbinol] + C/C(O)=C(\C#N)C(=O)Nc1cc(Br)ccc1Br [LFM-A13] (first compound 0.8 µM, partner dose 2 µM) | 258% | 83% | 457% | 35.7% | 113% | 66.7%
19 | N.N.[Cl][Pt][Cl] [cisplatin] + O=C(Oc1ccc([N+](=O)[O-])cc1)N1CCC(C(O)(c2ccc3c(c2)OCO3)c2ccc3c(c2)OCO3)CC1 [JZL184] (first compound 1.6 µM, partner dose 1 µM) | 199% | 217% | 91.2% | 54.3% | 88.8% | 72.6%
20 | C[C@@H](Oc1cc(-c2cnn(C3CCNCC3)c2)cnc1N)c1c(Cl)ccc(F)c1Cl [Crizotinib] + O=C(Oc1ccc([N+](=O)[O-])cc1)N1CCC(C(O)(c2ccc3c(c2)OCO3)c2ccc3c(c2)OCO3)CC1 [JZL184] (first compound 0.2 µM, partner dose 1 µM) | 42.7% | 54.3% | 77.9% | 77.7% | 79.2% | 35.2%
21 | Cn1cc(C2=C(c3cn(C4CCN(Cc5ccccn5)CC4)c4ccccc34)C(=O)NC2=O)c2ccccc21 [Enzastaurin] + CO[C@@H]1[C@H](N(C)C(=O)c2ccccc2)C[C@H]2O[C@]1(C)n1c3ccccc3c3c4c(c5c6ccccc6n2c5c31)C(=O)NC4 [Midostaurin] (first compound 0.8 µM, partner dose 0.08 µM) | 94.2% | 175% | 124% | 42.4% | 79% | 50.6%
22 | N.N.[Cl][Pt][Cl] [cisplatin] + COCC[n+]1c2c(n(Cc3cnccn3)c1C)C(=O)c1ccccc1C2=O [YM155] (first compound 1.6 µM, partner dose 0.0004 µM) | 51.5% | 69.2% | 97.1% | 36.5% | 68.2% | 81.6%
23 | NC(=O)c1ccc(N(C(N)=O)c2c(F)cccc2F)nc1-c1ccc(F)cc1F + C/C(O)=C(\C#N)C(=O)Nc1cc(Br)ccc1Br [LFM-A13] (first compound 0.4 µM, partner dose 2 µM) | 72.5% | 52.5% | 90.4% | 84.4% | 101% | 73.4%
24 | N.N.[Cl][Pt][Cl] [cisplatin] + CCc1ccc(CCOc2ccc(CC3SC(=O)NC3=O)cc2)nc1 [pioglitazone] (first compound 1.6 µM, partner dose 2 µM) | 202% | 195% | 89.3% | 92% | 91.3% | 40.5%
25 | COc1ccc(COc2ccc(Cc3cnc(N)nc3N)cc2OC)cc1 + Cc1cc(SCc2sc(-c3ccc(C(F)(F)F)c(F)c3)nc2C)ccc1OCC(=O)O [GW0742] (first compound 1 µM, partner dose 2 µM) | 51.3% | 86.1% | 112% | 56.1% | 82.5% | 158%

Just cleaved PARP positive nuclei fraction (WM451Lu), for some of the entries so far:
Row,SMILES,cleaved PARP positive nuclei fraction (WM451Lu)
4,"Cn1cc(C2=C(c3cn(C4CCN(Cc5ccccn5)CC4)c4ccccc34)C(=O)NC2=O)c2ccccc21 [Enzastaurin] + COc1cc2c(Oc3ccc4[nH]c(C)cc4c3F)ncnc2cc1OCCCN1CCCC1 [cediranib] (first compound 0.8 µM, partner dose 0.4 µM)",157%
5,"Cn1nnc2c(C(N)=O)ncn2c1=O [temozolomide] + Cc1cc(SCc2sc(-c3ccc(C(F)(F)F)c(F)c3)nc2C)ccc1OCC(=O)O [GW0742] (first compound 2 µM, partner dose 2 µM)",69.5%
